{"sequences": {"note": "Amino acid sequences for entries named in this document (tags omitted). Residues count along the entry.", "UniProt Q99873": "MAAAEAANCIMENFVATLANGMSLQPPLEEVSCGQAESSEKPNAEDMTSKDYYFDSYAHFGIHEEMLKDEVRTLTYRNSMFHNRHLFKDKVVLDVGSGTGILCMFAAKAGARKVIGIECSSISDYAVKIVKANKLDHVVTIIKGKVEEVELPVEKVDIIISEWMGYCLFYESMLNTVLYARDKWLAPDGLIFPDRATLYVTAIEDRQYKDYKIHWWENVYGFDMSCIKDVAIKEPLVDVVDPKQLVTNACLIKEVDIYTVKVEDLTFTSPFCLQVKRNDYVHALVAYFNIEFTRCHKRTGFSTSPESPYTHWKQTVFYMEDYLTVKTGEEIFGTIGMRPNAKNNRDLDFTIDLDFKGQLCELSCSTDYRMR", "UniProt P14349, residues 477-625": "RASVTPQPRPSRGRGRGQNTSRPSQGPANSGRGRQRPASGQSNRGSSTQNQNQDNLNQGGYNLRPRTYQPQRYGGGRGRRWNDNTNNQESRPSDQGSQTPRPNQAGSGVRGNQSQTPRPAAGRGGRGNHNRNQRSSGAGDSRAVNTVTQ"}, "source": "paper PMC6042332", "target": "endogenous PRMT1 (human (endogenous in the transfected cells; all lines cultured in the paper for transfection are human)) (UniProt Q99873)", "experiment": "co-IP; lysates of cells expressing HA-GRs or HA-GRs-R540A; immunoprecipitation with an anti-PRMT1 antibody (endogenous PRMT1); Western blot", "note": "These are yes or no findings as the source states them, for the method shown. Binding seen in cells or lysates may run through a third protein. Some entries that bind do so weakly or less than the wild type.", "data": [{"substance": "HA-GRs (HA-tagged PFV Gag C-terminal domain encompassing the three GR boxes, aa 477-625) (from UniProt P14349 477-625) (domain or fragment)", "values": [{"measurement": "binding", "result": "binds"}]}]}
